Measured values from PubChem BioAssay AID330 (DTP/NCI, 2004).
The list is a part of this screen's results and no random one: it gathers tests that were run many times, whatever their T/C, doses with no T/C, and many T/C values between a quarter and a half above the control. Other doses and runs of a compound stand elsewhere. T/C: endpoint of the treated group in % of that of the vehicle group. Some entries give survivors of the animals treated and no T/C: the source files T/C as zero there, which appears to mark a toxic dose or a test without result, not a measured value. Some doses without a T/C left all or most animals alive at the check, yet need not have been tolerated: the source hardly ever lists a survival T/C far under the control, and the zero likely stands for such cases as well. Survivors were counted at the toxicity check, usually on the fifth day, unless a day is given; later deaths do not show. Schedules are NCI's codes, read here as Q, the interval in days (D) or hours (H), X, the number of doses. Signs of the kind (2×) stand for listed records that agree. For survival time, the PubChem record calls one and a half times the control and up active, and a quarter to a half above the control has no call in these data; cut-offs in other NCI protocols can differ. Some entries were tested several times; the values are given in rising order. Some T/C values carry the count of animals alive at the toxicity check (mostly the fifth day); where none is given, no animal had died by that day.

Test system: P388 leukemia ip, CD2F1 mice, survival T/C
Assay: NCI In Vivo Anticancer Drug Screen. Data for tumor model P388 Leukemia (intraperitoneal) in CD2F1 (CDF1) mice
Details: T/C endpoint: median survival time, higher T/C = longer survival
[1] = dose: 6.25 mg/kg/injection, schedule: Q01DX009 (ip), vehicle: saline with Tween-80
[2] = dose: 12.5 mg/kg/injection, schedule: Q01DX009 (ip), vehicle: saline with Tween-80
[3] = dose: 25.0 mg/kg/injection, schedule: Q01DX009 (ip), vehicle: saline with Tween-80
[4] = dose: 50.0 mg/kg/injection, schedule: Q01DX009 (ip), vehicle: saline with Tween-80
[5] = dose: 100.0 mg/kg/injection, schedule: Q01DX009 (ip), vehicle: saline with Tween-80
[6] = dose: 200.0 mg/kg/injection, schedule: Q01DX009 (ip), vehicle: saline with Tween-80
[7] = dose: 200.0 mg/kg/injection, schedule: Q01DX005 (ip), vehicle: Klucel (hydroxypropylcellulose) (HPC)
[8] = dose: 200.0 mg/kg/injection, schedule: Q01DX009 (ip), vehicle: Klucel (hydroxypropylcellulose) (HPC)
[9] = dose: 100.0 mg/kg/injection, schedule: Q01DX009 (ip), vehicle: saline
[10] = dose: 120.0 mg/kg/injection, schedule: Q01DX005 (ip), vehicle: saline
[11] = dose: 240.0 mg/kg/injection, schedule: Q01DX005 (ip), vehicle: saline
[12] = dose: 25.0 mg/kg/injection, schedule: Q01DX009 (ip), vehicle: saline
[13] = dose: 50.0 mg/kg/injection, schedule: Q01DX009 (ip), vehicle: saline
[14] = dose: 200.0 mg/kg/injection, schedule: Q01DX009 (ip), vehicle: saline

## Cc1cc(NC(=O)CCc2ccc(N3C(N)=NC(N)=NC3(C)C)cc2)ccc1S(=O)(=O)F
dose: 3.0 mg/kg/injection, schedule: Q01DX009 (ip), vehicle: saline sonified
  T/C: 127 % of control
dose: 3.13 mg/kg/injection, schedule: Q01DX009 (ip), vehicle: saline with Tween-80
  T/C: 136 % of control
dose: 6.0 mg/kg/injection, schedule: Q01DX009 (ip), vehicle: saline sonified
  T/C: 140 % of control
[1]
  T/C: 145 % of control
[2]
  T/C: 127 and 145 % of control
[3]
  T/C: 145 % of control
[4]
  T/C: 140 % of control

## Clc1nc2nc(Cl)c(Cl)n2nc1Cl
dose: 100.0 mg/kg/injection, schedule: Q04DX002 (ip), vehicle: saline with Tween-80
  survivor count: 1 of 6
dose: 200.0 mg/kg/injection, schedule: Q04DX002 (ip), vehicle: saline with Tween-80
  survivor count: 0 of 6
dose: 400.0 mg/kg/injection, schedule: Q04DX002 (ip), vehicle: saline with Tween-80
  survivor count: 0 of 6

## COC(=O)C1=C(C)NC(C)=C(C(=O)OC)C(N2C(=O)CCC2=O)C1 (stereo unspecified)
[2]
  survivor count: 6 of 6
[3]
  survivor count: 6 of 6
[4]
  survivor count: 6 of 6
[5]
  survivor count: 6 of 6

## CN(C)c1ccc(C=NCCCN=Cc2ccc(N(C)C)cc2)cc1
[6]
  survivor count: 3 of 6
dose: 400.0 mg/kg/injection, schedule: Q01DX009 (ip), vehicle: saline with Tween-80
  survivor count: 1 of 6

## CCCCCN1C(=O)C2C3CCC(O3)C2C1=O (stereo unspecified)
[7]
  survivor count: 0 of 6

## CCCC[As](CCCC)SCC1OC(OC(C)=O)C(OC(C)=O)C(OC(C)=O)C1OC(C)=O (stereo unspecified)
[8]
  survivor count: 6 of 6

## COc1ccc(Cl)c2c(N=Nc3ccccc3[N+](=O)[O-])c(O)[nH]c12
dose: 60.0 mg/kg/injection, schedule: Q01DX005 (ip), vehicle: saline with Tween-80
  survivor count: 6 of 6
dose: 120.0 mg/kg/injection, schedule: Q01DX005 (ip), vehicle: saline with Tween-80
  survivor count: 6 of 6

## CSC(=S)NS(=O)(=O)c1cccs1
[8]
  survivor count: 0 of 6

## Clc1ccc(C(c2ccccc2)N2CCNCC2)cc1 (stereo unspecified)
dose: 200.0 mg/kg/injection, schedule: Q04DX003 (ip), vehicle: saline with Tween-80
  survivor count: 3 of 6
dose: 400.0 mg/kg/injection, schedule: Q04DX003 (ip), vehicle: saline with Tween-80
  survivor count: 0 of 6

## C[CH2][Ge]1([CH2]C)[CH2]CC2(CCN(CCCN(C)C)C2)C[CH2]1
[9]
  survivor count: 6 of 6
dose: 100.0 mg/kg/injection, schedule: Q01DX009 (ip), vehicle: water
  survivor count: 6 of 6

## CC(=O)NC1C([Se][As](C)C)OC(COC(C)=O)C(OC(C)=O)C1OC(C)=O (stereo unspecified)
[3]
  T/C: 127 % of control

## CCOC(=O)C(=C(SC)SC)[n+]1ccc(C)cc1
dose: 25.0 mg/kg/injection, schedule: Q04DX002 (ip), vehicle: saline with Tween-80
  survivor count: 2 of 6
dose: 50.0 mg/kg/injection, schedule: Q04DX002 (ip), vehicle: saline with Tween-80
  survivor count: 0 of 6

## CC(=O)O[Si](C)(OC(C)=O)c1ccccc1
dose: 50.0 mg/kg/injection, schedule: Q01DX009 (ip), vehicle: other
  survivor count: 6 of 6
dose: 100.0 mg/kg/injection, schedule: Q01DX009 (ip), vehicle: other
  survivor count: 6 of 6
dose: 200.0 mg/kg/injection, schedule: Q01DX009 (ip), vehicle: other
  survivor count: 5 of 6

## COc1cccc2c1C(=O)c1c(O)c3c(c(O)c1C2=O)CC(O)(/C=N/NS(=O)(=O)c1ccc(C)cc1)CC3OC1CC(N)C(O)C(C)O1 (stereo unspecified)
dose: 1.56 mg/kg/injection, schedule: Q01DX009 (ip), vehicle: other
  T/C: 131 % of control
dose: 3.13 mg/kg/injection, schedule: Q01DX009 (ip), vehicle: other
  T/C: 146 % of control

## COc1ccccc1C(=O)CCN(C)C
[10]
  survivor count: 1 of 6
[11]
  survivor count: 0 of 6

## CCN(N=Nc1ccc(OC)cc1)c1ccc(OC)cc1
[4]
  T/C: 133 % of control
[5]
  survivor count: 5 of 6
[6]
  survivor count: 0 of 6

## CCCCCC[N+]1([O-])CC[N+]([O-])(CCCCCC)CC1 (stereo unspecified)
[10]
  survivor count: 0 of 6
[11]
  survivor count: 0 of 6

## CNC(=O)OCc1c(C)sc(-c2ccccc2)c1COC(=O)NC
dose: 200.0 mg/kg/injection, schedule: Q01DX005 (ip), vehicle: distilled water + Tween-80
  survivor count: 3 of 5

## CCCCCNCC(=O)O
dose: 200.0 mg/kg/injection, schedule: Q01DX005 (ip), vehicle: saline
  survivor count: 6 of 6

## CN(C)c1ccc2nc3c(C(=O)O)cc(=O)c(O)c-3oc2c1
[7]
  survivor count: 2 of 6

## O=C(O)CN1C(=O)C=CC1=O
[12]
  survivor count: 6 of 6
[13]
  survivor count: 0 of 6
[9]
  survivor count: 0 of 6
[14]
  survivor count: 0 of 6

## CN(C)c1ccc(Cc2ccc(N(C)C)c(C(O)(c3ccccc3)c3ccccc3)c2)cc1C(O)(c1ccccc1)c1ccccc1
[4]
  survivor count: 6 of 6
[5]
  survivor count: 6 of 6
[6]
  survivor count: 6 of 6

## O=C(CCl)c1ccc(Cl)c(Cl)c1
dose: 400.0 mg/kg/injection, schedule: Q01DX001 (ip), vehicle: other
  survivor count: 3 of 6

## CCOc1c(N=Nc2ccccc2[N+](=O)[O-])c(C)nn1C(=S)SC
dose: 60.0 mg/kg/injection, schedule: Q01DX005 (ip), vehicle: Klucel (hydroxypropylcellulose) (HPC)
  survivor count: 0 of 6
dose: 120.0 mg/kg/injection, schedule: Q01DX005 (ip), vehicle: Klucel (hydroxypropylcellulose) (HPC)
  survivor count: 0 of 6
dose: 240.0 mg/kg/injection, schedule: Q01DX005 (ip), vehicle: Klucel (hydroxypropylcellulose) (HPC)
  survivor count: 0 of 6

## NC(=S)N/N=C/c1cc(-c2cccc(N)c2)ccn1
dose: 3.13 mg/kg/injection, schedule: Q01DX009 (ip), vehicle: saline
  T/C: 125 % of control
[1]
  T/C: 130 % of control
dose: 6.25 mg/kg/injection, schedule: Q01DX009 (ip), vehicle: saline
  T/C: 136 % of control [9 of 10 alive]
[2]
  T/C: 135 % of control
dose: 12.5 mg/kg/injection, schedule: Q01DX009 (ip), vehicle: saline
  T/C: 125 and 145 % of control
[3]
  T/C: 145 % of control
[12]
  T/C: 147 % of control
dose: 37.5 mg/kg/injection, schedule: Q04DX003 (ip), vehicle: saline
  T/C: 127 % of control
[4]
  T/C: 147 % of control
[13]
  T/C: 149 % of control
dose: 75.0 mg/kg/injection, schedule: Q04DX003 (ip), vehicle: saline
  T/C: 125 % of control
[5]
  survivor count: 10 of 10
dose: 150.0 mg/kg/injection, schedule: Q01DX009 (ip), vehicle: saline with Tween-80
  survivor count: 0 of 10
[6]
  survivor count: 0 of 10

## CCOC(=O)N(O)c1ccc(C)cc1C
dose: 200.0 mg/kg/injection, schedule: Q01DX005 (ip), vehicle: saline with Tween-80
  survivor count: 1 of 5

## CC(=O)n1c(Cl)c(/C=N/NS(=O)(=O)c2ccc(C)cc2)c2ccccc21
dose: 100.0 mg/kg/injection, schedule: Q01DX001 (ip), vehicle: saline with Tween-80
  survivor count: 6 of 6 (2×)
dose: 200.0 mg/kg/injection, schedule: Q01DX001 (ip), vehicle: saline with Tween-80
  survivor count: 6 of 6 (2×)
dose: 400.0 mg/kg/injection, schedule: Q01DX001 (ip), vehicle: saline with Tween-80
  survivor count: 6 of 6

## CC(C)(C)c1cc2c(=O)o[s+]3oc(=O)c(c1)c23
dose: 50.0 mg/kg/injection, schedule: Q01DX009 (ip), vehicle: Klucel (hydroxypropylcellulose) (HPC)
  survivor count: 1 of 6
dose: 100.0 mg/kg/injection, schedule: Q01DX009 (ip), vehicle: Klucel (hydroxypropylcellulose) (HPC)
  survivor count: 0 of 6
[8]
  survivor count: 0 of 6

## COC(=O)CCCCCCCCCCN(CCCl)CCCl
dose: 1.56 mg/kg/injection, schedule: Q01DX009 (ip), vehicle: saline
  T/C: 130 % of control
dose: 3.12 mg/kg/injection, schedule: Q01DX009 (ip), vehicle: saline
  T/C: 147 % of control
[12]
  survivor count: 5 of 6
[13]
  survivor count: 0 of 6
[9]
  survivor count: 0 of 6
[14]
  survivor count: 0 of 6
